Results published in US11554118B2 (priority 2017, dated 2023).
At least one compound was matched to its structure with a doubt left.

Protein sequences, listed by entry. Tags and fused reporters are not part of them. Lines headed by an entry give the natural chain unless they say otherwise; changes in a name come on top.
UniProt P35991: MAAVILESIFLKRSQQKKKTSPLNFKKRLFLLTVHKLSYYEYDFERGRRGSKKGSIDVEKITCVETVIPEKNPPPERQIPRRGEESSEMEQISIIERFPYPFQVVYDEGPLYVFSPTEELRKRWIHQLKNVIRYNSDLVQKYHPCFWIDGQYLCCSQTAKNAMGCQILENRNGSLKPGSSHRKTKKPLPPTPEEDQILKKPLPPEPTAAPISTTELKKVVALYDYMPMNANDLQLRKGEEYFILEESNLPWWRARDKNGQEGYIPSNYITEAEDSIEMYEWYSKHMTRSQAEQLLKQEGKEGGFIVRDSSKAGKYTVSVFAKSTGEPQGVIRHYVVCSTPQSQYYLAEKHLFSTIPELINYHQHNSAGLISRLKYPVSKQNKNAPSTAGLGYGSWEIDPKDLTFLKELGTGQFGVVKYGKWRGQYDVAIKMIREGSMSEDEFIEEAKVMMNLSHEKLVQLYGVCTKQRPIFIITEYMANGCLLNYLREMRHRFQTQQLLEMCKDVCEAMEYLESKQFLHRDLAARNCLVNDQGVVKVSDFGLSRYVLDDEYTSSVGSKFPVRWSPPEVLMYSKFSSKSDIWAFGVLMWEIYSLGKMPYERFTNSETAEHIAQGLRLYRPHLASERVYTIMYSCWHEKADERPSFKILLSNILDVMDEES

Target: Btk (Mus musculus (Mouse), UniProt P35991)
Test: Btk occupancy in vivo (PCI-33380 labeling of PBMCs or splenocytes)
Set-up: species or system BALB/c mice
Conditions: 10 mg/kg single oral dose, Babc/L mice, after 4 hours

## CC#CC(=O)N1CCCC[C@H]1c1nc(-c2ccc(Oc3cccc(OC)c3F)cc2)c2c(C)nccn12 [Compound 5, (S)-1-(2-(1-(4-(2-Fluoro-3-methoxyphenoxy)phenyl)-8-methylimidazo[1,5-a]pyrazin-3-yl)piperidin-1-yl)but-2-yn-1-one]
  Btk occupancy in vivo: full occupancy
